These are yes or no findings as the source states them, for the method shown. A result given as binding can be weak or reduced; the word gives no strength.

By UniProt entry, the sequences of proteins in these tests, tags left out. Where a name states a change or a piece, a line headed by the entry shows the natural chain unless it says otherwise.
UniProt O80888: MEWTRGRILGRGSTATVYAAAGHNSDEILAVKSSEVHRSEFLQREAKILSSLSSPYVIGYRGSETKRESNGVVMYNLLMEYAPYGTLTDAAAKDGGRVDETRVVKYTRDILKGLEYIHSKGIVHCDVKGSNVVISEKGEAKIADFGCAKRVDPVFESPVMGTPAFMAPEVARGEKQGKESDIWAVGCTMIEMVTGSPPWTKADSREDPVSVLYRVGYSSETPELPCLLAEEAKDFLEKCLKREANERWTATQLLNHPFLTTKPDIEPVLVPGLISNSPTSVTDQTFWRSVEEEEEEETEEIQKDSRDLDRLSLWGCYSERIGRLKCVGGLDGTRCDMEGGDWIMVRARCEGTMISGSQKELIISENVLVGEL
UniProt Q9SND6: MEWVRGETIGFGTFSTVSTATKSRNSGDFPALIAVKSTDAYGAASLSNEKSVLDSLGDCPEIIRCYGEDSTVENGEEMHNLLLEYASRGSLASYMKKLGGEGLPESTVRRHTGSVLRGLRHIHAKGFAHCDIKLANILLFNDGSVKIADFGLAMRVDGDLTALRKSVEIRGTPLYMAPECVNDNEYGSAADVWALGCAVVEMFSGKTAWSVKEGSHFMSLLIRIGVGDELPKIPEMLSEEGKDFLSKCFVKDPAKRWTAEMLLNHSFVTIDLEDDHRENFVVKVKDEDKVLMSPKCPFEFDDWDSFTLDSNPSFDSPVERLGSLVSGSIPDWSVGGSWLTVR

The assay concerns the target T1, MKK3 (Arabidopsis) (UniProt O80396).
T1 sequence: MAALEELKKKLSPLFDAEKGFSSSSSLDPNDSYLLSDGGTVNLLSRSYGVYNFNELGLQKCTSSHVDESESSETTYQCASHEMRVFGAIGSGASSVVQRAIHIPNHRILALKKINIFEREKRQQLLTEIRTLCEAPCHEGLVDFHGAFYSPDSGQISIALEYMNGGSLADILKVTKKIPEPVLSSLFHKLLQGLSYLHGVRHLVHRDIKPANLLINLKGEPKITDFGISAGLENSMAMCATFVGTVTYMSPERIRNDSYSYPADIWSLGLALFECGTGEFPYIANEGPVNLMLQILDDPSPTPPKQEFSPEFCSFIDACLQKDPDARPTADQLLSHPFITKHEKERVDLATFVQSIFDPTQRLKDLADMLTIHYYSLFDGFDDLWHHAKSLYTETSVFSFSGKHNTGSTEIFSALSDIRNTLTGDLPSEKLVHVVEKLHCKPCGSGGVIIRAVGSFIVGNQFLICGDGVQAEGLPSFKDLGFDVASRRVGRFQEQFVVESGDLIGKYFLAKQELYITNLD
Kind of assay: two-hybrid.
Regarding “C-terminal truncated form of MAP3K13 (missing its 143 C-terminal amino acids) (Arabidopsis) (domain or fragment)”, the binding entry is listed as “binds”.

Take “C-terminal truncated form of MAP3K14 (missing its 116 C-terminal amino acids) (Arabidopsis) (domain or fragment)”: the binding entry is on record as “binds”.

Regarding MAP3K15 (Arabidopsis) (enzyme), the binding result was “binds”.

MAP3K16 (from UniProt F4JVS7) (enzyme): the binding result is “binds”.

As to MAP3K17 (from UniProt O80888) (enzyme), the binding result is “binds”.

On to MAP3K19 (from UniProt Q9FHA5) (enzyme), for which the binding entry is “binds”.

Turning to MAP3K20 (from UniProt Q9SND6) (enzyme), the binding result is “binds”.

The values above are taken from article doi:10.1101/855098.
